Laboratory results: PubChem BioAssay AID504764 (Drosophila RNAi Screening Center, 2011)
In all, the deposit lists about 22,000 reagents; shown is an unselected part of those that have a named target and a result. Over the whole deposit, 403 (1.9%) were called active. 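Unnormalised raw counts per well; ratio z-scores behind the hit calls and whether each hit raises or lowers signal are not deposited.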 Names joined by + are all predicted targets of the reagent. Not stated in the record: the amount of reagent.

Test: 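Genome-wide screen for regulators of Notch-driven gene expression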 (primary screen)
Cells: Drosophila Kc167 cells
Reagent: long dsRNA against Drosophila genes
Time to read-out: about 5 days (4 days dsRNA, then 24 h after transfection)
Challenge: transfection of constitutively active membrane-tethered Notch lacking the extracellular domain, read 24 h later
Measurement: 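Light from a Notch-responsive E(spl)m3 luciferase reporter under active Notch, with control-promoter and no-Notch reporter wells to normalise; raw counts from paired wells a and b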
Reading the numbers: induced reporter light, run 1, well a and induced reporter light, run 1, well b: higher = more light from the Notch target reporter with active Notch; control promoter light, run 1, well a and control promoter light, run 1, well b: higher = more light from the viral control promoter (cell number, transfection, viability); uninduced reporter light, run 1, well a: higher = more light from the Notch target reporter without active Notch
Hit rule: 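Hit if the duplicate-averaged log2 ratio of induced to control-promoter light gives a plate-wise z beyond ±2, or induced to uninduced beyond ±1.8; weak-control or discordant-duplicate wells dropped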
Meaning of the calls: active = modifier hit (raised or lowered Notch signal); inactive = not a hit

{"target": "CG11828", "dsRNA": "DRSC14394", "induced reporter light, run 1, well a": 1.07e5, "induced reporter light, run 1, well b": 94675, "control promoter light, run 1, well a": 1.18e5, "control promoter light, run 1, well b": 1.40e5, "uninduced reporter light, run 1, well a": 9265, "call": "inactive"}
{"target": "Spn28F", "dsRNA": "DRSC03615", "induced reporter light, run 1, well a": 1.54e5, "induced reporter light, run 1, well b": 2.10e5, "control promoter light, run 1, well a": 1.27e5, "control promoter light, run 1, well b": 1.59e5, "uninduced reporter light, run 1, well a": 23065, "call": "inactive"}
{"target": "Spn77Bb + Spn77Bc", "dsRNA": "DRSC10689", "induced reporter light, run 1, well a": 1.12e5, "induced reporter light, run 1, well b": 94185, "control promoter light, run 1, well a": 79745, "control promoter light, run 1, well b": 76590, "uninduced reporter light, run 1, well a": 7285, "call": "inactive"}
{"target": "Spn77Bb + Spn77Bc", "dsRNA": "DRSC11793", "induced reporter light, run 1, well a": 1.02e5, "induced reporter light, run 1, well b": 1.10e5, "control promoter light, run 1, well a": 91295, "control promoter light, run 1, well b": 87010, "uninduced reporter light, run 1, well a": 8195, "call": "inactive"}
{"target": "CG15499 (retired record)", "dsRNA": "DRSC15041", "induced reporter light, run 1, well a": 1.41e5, "induced reporter light, run 1, well b": 1.25e5, "control promoter light, run 1, well a": 1.64e5, "control promoter light, run 1, well b": 1.69e5, "uninduced reporter light, run 1, well a": 9832, "call": "inactive"}
{"target": "rho-4", "dsRNA": "DRSC19761", "induced reporter light, run 1, well a": 1.89e5, "induced reporter light, run 1, well b": 1.61e5, "control promoter light, run 1, well a": 1.97e5, "control promoter light, run 1, well b": 1.96e5, "uninduced reporter light, run 1, well a": 13845, "call": "inactive"}
{"target": "rho-4", "dsRNA": "DRSC19762", "induced reporter light, run 1, well a": 97280, "induced reporter light, run 1, well b": 1.02e5, "control promoter light, run 1, well a": 1.57e5, "control promoter light, run 1, well b": 1.38e5, "uninduced reporter light, run 1, well a": 7355, "call": "inactive"}
{"target": "CG17780", "dsRNA": "DRSC15265", "induced reporter light, run 1, well a": 1.24e5, "induced reporter light, run 1, well b": 1.56e5, "control promoter light, run 1, well a": 1.68e5, "control promoter light, run 1, well b": 1.85e5, "uninduced reporter light, run 1, well a": 13610, "call": "inactive"}
{"target": "thr", "dsRNA": "DRSC07706", "induced reporter light, run 1, well a": 84475, "induced reporter light, run 1, well b": 89050, "control promoter light, run 1, well a": 1.56e5, "control promoter light, run 1, well b": 2.01e5, "uninduced reporter light, run 1, well a": 7840, "call": "inactive"}
{"target": "l(3)62Be (retired record)", "dsRNA": "DRSC08231", "induced reporter light, run 1, well a": 82580, "induced reporter light, run 1, well b": 94140, "control promoter light, run 1, well a": 1.89e5, "control promoter light, run 1, well b": 1.75e5, "uninduced reporter light, run 1, well a": 7470, "call": "inactive"}
{"target": "Surf4", "dsRNA": "DRSC16875", "induced reporter light, run 1, well a": 2.18e5, "induced reporter light, run 1, well b": 2.07e5, "control promoter light, run 1, well a": 1.99e5, "control promoter light, run 1, well b": 1.62e5, "uninduced reporter light, run 1, well a": 20700, "call": "inactive"}
{"target": "kst", "dsRNA": "DRSC08719", "induced reporter light, run 1, well a": 1.22e5, "induced reporter light, run 1, well b": 1.21e5, "control promoter light, run 1, well a": 87530, "control promoter light, run 1, well b": 34060, "uninduced reporter light, run 1, well a": 11970, "call": "inactive"}
{"target": "Jra", "dsRNA": "DRSC07447", "induced reporter light, run 1, well a": 1.79e5, "induced reporter light, run 1, well b": 2.49e5, "control promoter light, run 1, well a": 1.94e5, "control promoter light, run 1, well b": 2.00e5, "uninduced reporter light, run 1, well a": 18405, "call": "inactive"}
{"target": "Pgk", "dsRNA": "DRSC00769", "induced reporter light, run 1, well a": 1.27e5, "induced reporter light, run 1, well b": 97880, "control promoter light, run 1, well a": 91925, "control promoter light, run 1, well b": 54175, "uninduced reporter light, run 1, well a": 9115, "call": "inactive"}
{"target": "serp", "dsRNA": "DRSC11035", "induced reporter light, run 1, well a": 92395, "induced reporter light, run 1, well b": 92660, "control promoter light, run 1, well a": 96045, "control promoter light, run 1, well b": 69135, "uninduced reporter light, run 1, well a": 10365, "call": "inactive"}
{"target": "serp", "dsRNA": "DRSC11036", "induced reporter light, run 1, well a": 45505, "induced reporter light, run 1, well b": 46445, "control promoter light, run 1, well a": 33890, "control promoter light, run 1, well b": 33615, "uninduced reporter light, run 1, well a": 4235, "call": "inactive"}
{"target": "Sf3a1", "dsRNA": "DRSC15166", "induced reporter light, run 1, well a": 57545, "induced reporter light, run 1, well b": 67875, "control promoter light, run 1, well a": 68775, "control promoter light, run 1, well b": 77530, "uninduced reporter light, run 1, well a": 4245, "call": "active"}
{"target": "CtsL4", "dsRNA": "DRSC02849", "induced reporter light, run 1, well a": 1.12e5, "induced reporter light, run 1, well b": 1.53e5, "control promoter light, run 1, well a": 61995, "control promoter light, run 1, well b": 59875, "uninduced reporter light, run 1, well a": 17005, "call": "inactive"}
{"target": "CG15262", "dsRNA": "DRSC01975", "induced reporter light, run 1, well a": 95285, "induced reporter light, run 1, well b": 1.20e5, "control promoter light, run 1, well a": 1.34e5, "control promoter light, run 1, well b": 1.43e5, "uninduced reporter light, run 1, well a": 8440, "call": "inactive"}
{"target": "GCS2beta", "dsRNA": "DRSC02960", "induced reporter light, run 1, well a": 2.28e5, "induced reporter light, run 1, well b": 2.26e5, "control promoter light, run 1, well a": 3.97e5, "control promoter light, run 1, well b": 4.10e5, "uninduced reporter light, run 1, well a": 14805, "call": "inactive"}
{"target": "Bdbt", "dsRNA": "DRSC15218", "induced reporter light, run 1, well a": 1.68e5, "induced reporter light, run 1, well b": 1.70e5, "control promoter light, run 1, well a": 1.74e5, "control promoter light, run 1, well b": 1.98e5, "uninduced reporter light, run 1, well a": 12675, "call": "inactive"}
{"target": "bru2", "dsRNA": "DRSC01246", "induced reporter light, run 1, well a": 1.22e5, "induced reporter light, run 1, well b": 1.27e5, "control promoter light, run 1, well a": 1.16e5, "control promoter light, run 1, well b": 1.21e5, "uninduced reporter light, run 1, well a": 9010, "call": "inactive"}
{"target": "bru2", "dsRNA": "DRSC01247", "induced reporter light, run 1, well a": 31575, "induced reporter light, run 1, well b": 30355, "control promoter light, run 1, well a": 8130, "control promoter light, run 1, well b": 7800, "uninduced reporter light, run 1, well a": 9605, "call": "inactive"}
{"target": "bru2", "dsRNA": "DRSC01249", "induced reporter light, run 1, well a": 1.26e5, "induced reporter light, run 1, well b": 1.10e5, "control promoter light, run 1, well a": 1.45e5, "control promoter light, run 1, well b": 1.43e5, "uninduced reporter light, run 1, well a": 8305, "call": "inactive"}
{"target": "bru2", "dsRNA": "DRSC01250", "induced reporter light, run 1, well a": 77890, "induced reporter light, run 1, well b": 71270, "control promoter light, run 1, well a": 86875, "control promoter light, run 1, well b": 85015, "uninduced reporter light, run 1, well a": 7888, "call": "inactive"}
{"target": "bru2", "dsRNA": "DRSC02557", "induced reporter light, run 1, well a": 11580, "induced reporter light, run 1, well b": 12365, "control promoter light, run 1, well a": 15200, "control promoter light, run 1, well b": 11865, "uninduced reporter light, run 1, well a": 2745, "call": "inactive"}

2 entries from above, showing only “control promoter light, run 1, well b”.
Surf4 [DRSC16875]	1.62e5
kst [DRSC08719]	34060
